Measurements taken from publication PMC9646673, “A Novel, Orally Bioavailable, Small-Molecule Inhibitor of PCSK9 With Significant Cholesterol-Lowering Properties In Vivo” (Journal of Lipid Research, 2022).

Columns and labels:
APOE∗3-Leiden.CETP mice [1] = test: Second efficacy study (35 days, with atorvastatin): plasma lipids; format: in vivo, mouse
Excerpt: (§1) Animal experiments were approved by the governmental central committee on animal experiments (AVD5010020172064) and TNO’s animal welfare body (TNO-471 and TNO-482). Female APOE∗3-Leiden.CETP transgenic mice (11–16 weeks of age) were bred at the animal facility of TNO-InnoSer (Leiden, The Netherlands). Female animals were used in this study as they are more responsive to dietary cholesterol and fat than males and therefore typically develop atherosclerosis more rapidly than male APOE∗3-Leiden and APOE∗3-Leiden.CETP mice on cholesterol-containing diets ([33], [34]). Although measurements of atherosclerosis were not included as part of the present study, females were used with the prospect in mind that atherosclerosis studies will follow. The mice were housed under standard conditions that included 12 h light-dark cycles and access to a WTD and sterilized tap water ad libitum. Body weight, food intake, and clinical signs of behavior were monitored throughout the studies. […] Time t = 0 (weeks) was designated as the time at which mice were matched into groups after the 3-week run-in period in each efficacy study.
(§2) In both studies, blood samples were collected at weekly intervals via tail vein sampling after fasting the mice for 4 h. Blood samples were centrifugated (4500 g at 4°C), and the plasma was collected for the following analyses. Total plasma cholesterol levels were determined using a Cholesterol CHOD-PAP kit according to the manufacturer’s instructions. Plasma HDL-C levels were determined by first precipitating apoB-containing lipids using PEG 6000/glycine and then utilizing the Cholesterol CHOD-PAP kit ([35]). Non-HDL-C levels were determined by subtracting HDL-C levels from total cholesterol levels ([32]). Group-pooled lipoprotein profiles were determined by FPLC analysis using an AKTApurifier 10 FPLC system (GE Healthcare, Chicago, IL). Plasma PCSK9 levels were determined using a Mouse PCSK9 Quantikine ELISA kit as per the manufacturer’s protocol. ALT and AST levels of group-pooled samples were measured using the Roche Reflotron Plus System (Mannheim, Germany).

APOE∗3-Leiden.CETP mice [2] = test: Fecal bile acid and neutral sterol content, cholesterol balance; conditions: final week of 35-day study
APOE∗3-Leiden.CETP mice [3] = test: Second efficacy study: body weight, food intake, plasma ALT and AST; format: in vivo, mouse; conditions: group-pooled, NYX-PCSK9i 50 mg/kg BID PO, atorvastatin […]
Excerpt: as §1, §2

[4] = day 0 (baseline), NYX-PCSK9i 50 mg/kg BID PO
[5] = day 14, NYX-PCSK9i 50 mg/kg BID PO
[6] = day 28, NYX-PCSK9i 50 mg/kg BID PO
[7] = day 35, NYX-PCSK9i 50 mg/kg BID PO

CC(C)c1c(C(=O)Nc2ccccc2)c(-c2ccccc2)c(-c2ccc(F)cc2)n1CC[C@@H](O)C[C@@H](O)CC(=O)O [atorvastatin, reference compound]
Plasma HDL-cholesterol (APOE∗3-Leiden.CETP mice [1]; [4]): 0.9 ± 0.2 mmol/L | Plasma non- HDL-cholesterol (APOE∗3-Leiden.CETP mice [1]; [4]): 14.7 ± 1.8 mmol/L | Plasma triglycerides (mean ± SD) (APOE∗3-Leiden.CETP mice [1]; [4]): 5.6 ± 2.3 mmol/L | Plasma triglycerides (mean ± SD) (APOE∗3-Leiden.CETP mice [1]; day 7, NYX-PCSK9i 50 mg/kg BID PO): 5.2 ± 2.0 mmol/L | Plasma HDL-cholesterol (APOE∗3-Leiden.CETP mice [1]; [5]): 1.1 ± 0.5 mmol/L | Plasma non- HDL-cholesterol (APOE∗3-Leiden.CETP mice [1]; [5]): 13.1 ± 2.2 mmol/L | Plasma triglycerides (mean ± SD) (APOE∗3-Leiden.CETP mice [1]; [5]): 5.9 ± 1.5 mmol/L | Plasma triglycerides (mean ± SD) (APOE∗3-Leiden.CETP mice [1]; day 21, NYX-PCSK9i 50 mg/kg BID PO): 4.9 ± 1.7 mmol/L | Plasma HDL-cholesterol (APOE∗3-Leiden.CETP mice [1]; [6]): 1.1 ± 0.5 mmol/L | Plasma non- HDL-cholesterol (APOE∗3-Leiden.CETP mice [1]; [6]): 12.8 ± 1.6 mmol/L | Plasma triglycerides (mean ± SD) (APOE∗3-Leiden.CETP mice [1]; [6]): 5.1 ± 1.1 mmol/L | Plasma HDL-cholesterol (APOE∗3-Leiden.CETP mice [1]; [7]): 0.5 ± 0.1 mmol/L | Plasma non- HDL-cholesterol (APOE∗3-Leiden.CETP mice [1]; [7]): 15.3 ± 1.9 mmol/L | Plasma triglycerides (mean ± SD) (APOE∗3-Leiden.CETP mice [1]; [7]): 6.4 ± 1.6 mmol/L | cholesterol balance (dietary cholesterol intake minus fecal bile acids and neutral sterols) (APOE∗3-Leiden.CETP mice [2]): negative | Plasma ALT (APOE∗3-Leiden.CETP mice [3]; day 0 (baseline)): 101 U/L | Plasma AST (APOE∗3-Leiden.CETP mice [3]; day 0 (baseline)): 101 U/L | Plasma ALT (APOE∗3-Leiden.CETP mice [3]; day 14): 90 U/L | Plasma AST (APOE∗3-Leiden.CETP mice [3]; day 14): 90 U/L | Plasma ALT (APOE∗3-Leiden.CETP mice [3]; day 28): 49 U/L | Plasma AST (APOE∗3-Leiden.CETP mice [3]; day 28): 49 U/L | Plasma ALT (APOE∗3-Leiden.CETP mice [3]; day 35): 57 U/L | Plasma AST (APOE∗3-Leiden.CETP mice [3]; day 35): 57 U/L
